Substitutions are numbered along the chain they refer to. Results are given in words; binding and its absence hold for the method and conditions named. For some of these results: Binding can be weak; no strength is given.
B1: mAb 12422 (antibody, human IgG1, kappa, V domains shown)
VH: QVQLVQSGAEVKKPGSSVKVSCKASGGTFSSYAISWVRQAPGQGLEWMGYISPYMGETHYAQKFQGRVTITADESTSTAYMELSSLRSEDTAVYYCARESYEYFDIWGQGTLVTVSS
VL: DIQMTQSPSSLSASVGDRVTITCRASQSISNDLAWYQQKPGKAPKLLIYATSILQSGVPSRFSGSGSGTDFTLTISSLQPEDFATYYCLQYYDYSYTFGQGTKVEIKR
B2: mAb 12439 (antibody, human IgG1, kappa, V domains shown)
VH: QVQLVQSGAEVKKPGASVKVSCKASGYTFTSYDISWVRQAPGQGLEWMGWINPYNGGTNYAQKFQGRVTMTRDTSISTAYMELSRLRSEDTAVYYCAREGSGMIVYPGWSYAFDYWGQGTLVTVSS
VL: B1 VL with S28D, A34G, T51A, I53S, L89Q, Y91H, D93H, Y94T, S95P, Y96N

Tests used:
Experiment in all cases: SPR (Biacore)
[1] = biological target: Human FGFR1 IIIb D1-3 (human)
[2] = biological target: Human FGFR3 IIIb D1-3 (human)
[3] = biological target: Mouse FGFR2 IIIb D1-3 (mouse)
[4] = biological target: Human FGFR2 IIIb D1-3 (human)
[5] = biological target: Rat FGFR2 IIIb D1-3 (rat)

Row | Binder | binding [1] | binding [2] | binding [3] | binding [4] | binding [5]
1 | B1 | no binding | no binding | binds | binds | binds
2 | B2 | no binding | no binding | binds | binds | binds

— US20140301946A1 (Novartis, published 2014)
